4 substances from patent publication US20090048168A1 (CASE WESTERN RESERVE UNIVERSITY, published 2009) can be followed below.

The chains behind the UniProt entries cited, without tags or fusion partners. Residues count along the entry.
GST-IP3R domain 3 fragment (P11881, residues 922-1581): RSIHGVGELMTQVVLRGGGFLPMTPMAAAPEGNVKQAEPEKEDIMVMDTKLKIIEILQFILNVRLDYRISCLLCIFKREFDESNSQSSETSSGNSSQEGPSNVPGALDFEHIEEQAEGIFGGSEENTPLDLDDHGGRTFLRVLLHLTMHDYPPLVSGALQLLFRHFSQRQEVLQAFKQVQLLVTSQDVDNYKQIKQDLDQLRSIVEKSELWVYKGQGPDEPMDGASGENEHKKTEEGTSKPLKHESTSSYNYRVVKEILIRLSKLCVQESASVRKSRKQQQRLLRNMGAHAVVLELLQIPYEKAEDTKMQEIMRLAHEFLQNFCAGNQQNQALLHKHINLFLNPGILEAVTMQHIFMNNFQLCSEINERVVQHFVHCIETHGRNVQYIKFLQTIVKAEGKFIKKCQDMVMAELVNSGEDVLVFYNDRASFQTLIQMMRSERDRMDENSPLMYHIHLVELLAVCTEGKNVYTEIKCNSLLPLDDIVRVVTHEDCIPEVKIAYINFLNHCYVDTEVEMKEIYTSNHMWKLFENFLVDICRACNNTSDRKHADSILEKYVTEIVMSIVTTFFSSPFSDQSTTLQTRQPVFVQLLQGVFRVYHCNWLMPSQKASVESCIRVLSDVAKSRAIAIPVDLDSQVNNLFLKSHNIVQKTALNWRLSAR
GST-IP3R subdomain 3a1 (aa 1347-1426) (P11881, residues 1347-1426): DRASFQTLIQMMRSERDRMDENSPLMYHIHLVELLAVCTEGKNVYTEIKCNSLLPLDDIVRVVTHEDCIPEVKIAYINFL
UniProt P10415: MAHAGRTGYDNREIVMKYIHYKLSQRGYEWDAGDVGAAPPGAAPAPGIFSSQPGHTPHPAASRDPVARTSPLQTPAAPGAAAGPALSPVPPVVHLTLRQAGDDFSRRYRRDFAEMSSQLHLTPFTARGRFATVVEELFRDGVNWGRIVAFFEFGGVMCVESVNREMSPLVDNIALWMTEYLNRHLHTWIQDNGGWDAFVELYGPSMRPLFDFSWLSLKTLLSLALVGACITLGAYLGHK

These are yes or no findings as the source states them, for the method shown. In cells and extracts the contact can be indirect. Some results given as binding are weak or reduced against the parent protein; the word gives no strength.

For test [1], the target named is GST-IP3R subdomain 3a1 (aa 1347-1426) (mouse) (UniProt P11881). In words: GST pull-down with smaller fragments of domain 3.
The target of test [2] is GST-IP3R domain 3 fragment (mouse) (UniProt P11881). In words: GST pull-down under three buffer and wash conditions.
Test [3] has the same target. In words: GST pull-down from Jurkat cell extract, Bcl-2 immunoblot.
Test [4] has the same target. As to the kind of experiment: GST pull-down from Bcl-2(+) WEHI7.2 cell extract, Bcl-2 immunoblot. For orientation: A western blot detects proteins with antibodies after separation by electrophoresis.
For test [5] the target is unchanged. In words: GST pull-down with purified protein, three separate experiments.

On to “Bcl-2 (source not stated in the buffer comparison and subdomain pull-downs) (from UniProt P10415 1-239)”, for which the binding result in test [1] and in test [2] was “binds” throughout. In the case of “endogenous Bcl-2 in Jurkat cells (from UniProt P10415 1-239)”, the binding entry in test [3] is reported as “binds”.

As to “Bcl-2 exogenously expressed in WEHI7.2 cells (from UniProt P10415 1-239)”, the binding entry in test [4] was “binds”. Consider “purified His-tagged full-length Bcl-2 (from UniProt P10415 1-239)”, for which, in test [5], the binding result is given as “binds”.
